ChEMBL document CHEMBL1155933, “Identification of 4-aminopyrazolylpyrimidines as potent inhibitors of Trk kinases” (J Med Chem, 2008)
Values after ≈ are worked out from the molar mass of the structure shown.

Assay: Solubility in phosphate buffer at pH 7.4 after 24 hrs

`C[C@H](Nc1nc(NC[C@@H](O)CO)c(Cl)c(Nc2cc(C3CC3)[nH]n2)n1)c1ccc(F)cc1` gave a solubility at 24 h of 19 µM (≈ 8.78 µg/mL).
